No constants are given. Whether binding was seen depends on the method and setting. In cells and extracts the contact can be indirect. Binding can be weak; no strength is given.
Molecular target: Dengue virus 1 capsid-anchor protein (c-anc, 1-114aa) (Dengue virus 1 (DENV-1))
Test: pull-down

B1: Alpha-1 syntrophin (SNTA1) (protein, UniProt Q13424 1-505)
chain: MASGRRAPRTGLLELRAGAGSGAGGERWQRVLLSLAEDVLTVSPADGDPGPEPGAPREQEPAQLNGAAEPGAGPPQLPEALLLQRRRVTVRKADAGGLGISIKGGRENKMPILISKIFKGLAADQTEALFVGDAILSVNGEDLSSATHDEAVQVLKKTGKEVVLEVKYMKDVSPYFKNSTGGTSVGWDSPPASPLQRQPSSPGPTPRNFSEAKHMSLKMAYVSKRCTPNDPEPRYLEICSADGQDTLFLRAKDEASARSWATAIQAQVNTLTPRVKDELQALLAATSTAGSQDIKQIGWLTEQLPSGGTAPTLALLTEKELLLYLSLPETREALSRPARTAPLIATRLVHSGPSKGSVPYDAELSFALRTGTRHGVDTHLFSVESPQELAAWTRQLVDGCHRAAEGVQEVSTACTWNGRPCSLSVHIDKGFTLWAAEPGAARAVLLRQPFEKLQMSSDDGASLLFLDFGGAEGEIQLDLHSCPKTIVFIIHSFLSAKVTRLGLLA
With B1 the binding was “binds”.

Reference: doi:10.1101/2025.10.02.679945
